Data as given in the supplement of paper PMC12067093, “Discovery and optimisation of a covalent ligand for TRIM25 and its application to targeted protein ubiquitination” (Chemical Science, 2025).
The list shows a part of the results.

Compound: CC1Cc2ccccc2N1C(=O)C1CCCN(C1)C(=O)CCl (mixture of isomers) [TRIM25 ligand 11 (diastereomer mixture)]
Assay: probe-labelled cysteine peptide fold change vs DMSO (competition) (log2 fold change); higher = less target engagement (more negative = stronger competition)
Conditions: THP-1, incubation time: 4 h
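Also: competitive chemoproteomic profiling in live THP-1 cells with an iodoacetamide desthiobiotin (IA-DTB) probe, comparing probe-labelled peptide intensities in compound-treated cells against DMSO-treated controls.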

Target | probe-labelled cysteine peptide fold change (10 µM) | probe-labelled cysteine peptide fold change (50 µM)
HSPA5_P11021_41_EDVGTVVGIDLGTTYSCVGVFK (UniProt P11021) | 0.162 | 0.307
HSPA9_P38646_66_GAVVGIDLGTTNSCVAVMEGK (UniProt P38646) | 0.0277 | -0.133
HSP90AA1_P07900_374_RVFIMDNCEELIPEYLNFIR (UniProt P07900) | -0.217 | -0.189
HNRNPM_P52272_114_GCAVVEFK (UniProt P52272) | -0.0271 | 0.0453
HSPA4L_O95757_167_SVMAAAQVAGLNCLR (UniProt O95757) | 0.00201 | 0.0232
HNRNPUL2_Q1KMD3_408_NCVVELNFGQKEEPFFPPPEEFVFIHAVPVEER (UniProt Q1KMD3) | -0.173 | -0.0613
HPS1_Q92902_165_LREQEQCFAVEALER (UniProt Q92902) | -0.0165 | -0.0382
HNRNPA3_P51991_196_YHTINGHNCEVKK (UniProt P51991) | -0.179 | -0.163
HPS3_Q969F9_398_CSAAAAREEDPYMDTTLK (UniProt Q969F9) | 0.0216 | 0.0163
HNRNPF_P52597_34_GLPWSCSVEDVQNFLSDCTIHDGAAGVHFIYTR (UniProt P52597) | 0.148 | 0.00236
HSP90AA1_P07900_529_KHGLEVIYMIEPIDEYCVQQLK (UniProt P07900) | -0.0494 | -0.149
HNRNPUL2_Q1KMD3_538_NFILDQCNVYNSGQR (UniProt Q1KMD3) | -0.0123 | 0.112
HSP90AB1_P08238_521_RGFEVVYMTEPIDEYCVQQLK (UniProt P08238) | -0.0447 | -0.173
HSCB_Q8IWL3_79_ALQAPDPTRDYFSLMDCNR (UniProt Q8IWL3) | -0.523 | -0.0316
HNRNPUL1_Q9BUJ2_532_KAIVICPTDEDLK (UniProt Q9BUJ2) | -0.551 | -0.521
HNRNPLL_Q8WVV9_357_VFNLFCLYGNIEK (UniProt Q8WVV9) | -0.0521 | 0.0536
HNRNPUL1_Q9BUJ2_421_SKAECEILMMVGLPAAGK (UniProt Q9BUJ2) | -0.14 | -0.0295
HPS6_Q86YV9_141_LVWCEER (UniProt Q86YV9) | -0.0343 | -0.0196
HNRNPLL_Q8WVV9_505_TLSGLLEWECKTDAVEALTALNHYQIR (UniProt Q8WVV9) | -0.494 | -0.227
HSPBP1_Q9NZL4_348_LLQTCFSSPADDSMDR (UniProt Q9NZL4) | 0.0152 | -0.0187
HSPBAP1_Q96EW2_293_MLVCALK (UniProt Q96EW2) | 0.232 | 0.109
HPS3_Q969F9_831_TSEDLINACSHYGLIYPWVHVVISSDSLADK (UniProt Q969F9) | -0.0328 | 0.158
HSPA4_P34932_34_CTPACISFGPK (UniProt P34932) | 0.0618 | -0.0344

Target | probe-labelled cysteine peptide fold change (10 µM) | probe-labelled cysteine peptide fold change (50 µM)
HSD17B4_P51659_373_FIYEGSSDFSCLPTFGVIIGQK (UniProt P51659) | 0.139 | 0.054
HTATIP2_Q9BUP3_91_NVNQEVVDFEKLDDYASAFQGHDVGFCCLGTTR (UniProt Q9BUP3) | -0.287 | 0.0321
HPS1_Q92902_180_LIHPQLCELCIEALER (UniProt Q92902) | 0.0295 | -0.0241
HNRNPK_P61978_145_GSDFDCELR (UniProt P61978) | -0.031 | -0.0896
HSPH1_Q92598_13_SVVGLDVGSQSCYIAVAR (UniProt Q92598) | 0.00267 | 0.124
HSPA2_P54652_191_GCAGGEK (UniProt P54652) | -0.0761 | -0.123
HSPH1_Q92598_167_SVLDAAQIVGLNCLR (UniProt Q92598) | -0.0128 | 0.0497
HSPD1_P10809_237_CEFQDAYVLLSEK (UniProt P10809) | 0.0581 | -0.103
HNRNPU_Q00839_607_KAVVVCPKDEDYK (UniProt Q00839) | -0.459 | -0.291
HSPA2_P54652_18_GPAIGIDLGTTYSCVGVFQHGK (UniProt P54652) | -0.0169 | 0.188
HNRNPA1_P09651_175_YHTVNGHNCEVRK (UniProt P09651) | -0.155 | -0.11
HTATIP2_Q9BUP3_172_YSVFRPGVLLCDR (UniProt Q9BUP3) | -0.0618 | -7.7e-05
HSPA4_P34932_779_ELTSTCSPIISKPKPK (UniProt P34932) | -0.489 | -0.494
HNRNPA2B1_P22626_50_LTDCVVMRDPASK (UniProt P22626) | 0.0102 | 0.0215
HNRNPLL_Q8WVV9_84_GLCESVVEADLVEALEK (UniProt Q8WVV9) | 0.0479 | -0.284
HNRNPU_Q00839_497_KDCEVVMMIGLPGAGK (UniProt Q00839) | -0.0106 | -0.106
HNRNPK_P61978_184+185_LFQECCPHSTDRVVLIGGKPDR (UniProt P61978) | -0.407 | -0.363
HSP90AB1_P08238_366_RVFIMDSCDELIPEYLNFIR (UniProt P08238) | -0.185 | 0.0207
HSDL2_Q6YN16_136_ACIPYLK (UniProt Q6YN16) | -0.0408 | -0.0632
HSPA4_P34932_245_FDEVLVNHFCEEFGK (UniProt P34932) | 0.196 | 0.153
HNRNPU_Q00839_607_KAVVVCPK (UniProt Q00839) | -0.0915 | -0.179
HNRNPA3_P51991_94_GFGFVTYSCVEEVDAAMCARPHK (UniProt P51991) | -0.197 | -0.119
HSPA4L_O95757_34+38_CTPACISLGSR (UniProt O95757) | 0.00672 | 0.0153

Target | probe-labelled cysteine peptide fold change (10 µM) | probe-labelled cysteine peptide fold change (50 µM)
HSPA4_P34932_417_WNSPAEEGSSDCEVFSK (UniProt P34932) | 0.0812 | -0.116
HNRNPH1_P31943_290_YGDGGSTFQSTTGHCVHMR (UniProt P31943) | 0.0618 | -0.211
HNRNPUL1_Q9BUJ2_532_AIVICPTDEDLK (UniProt Q9BUJ2) | -0.147 | -0.132
HSPA4_P34932_167_SVMDATQIAGLNCLR (UniProt P34932) | 0.00217 | 0.0494
HNRNPK_P61978_185_LFQECCPHSTDR (UniProt P61978) | 0.133 | 0.0489
HSPG2_P98160_4389_AQAGANTRPCPS (UniProt P98160) | 0.478 | 0.124
HNRNPF_P52597_22+34_GLPWSCSVEDVQNFLSDCTIHDGAAGVHFIYTR (UniProt P52597) | 0.143 | -0.0897
HNRNPL_P14866_260+261_ASLNGADIYSGCCTLK (UniProt P14866) | 0.0282 | 0.195
HNRNPL_P14866_581_LCFSTAQHAS (UniProt P14866) | 0.0448 | 0.0708
HSF1_Q00613_373_CLSVACLDK (UniProt Q00613) | -0.0613 | -0.215
HNRNPA2B1_P22626_50_LTDCVVMR (UniProt P22626) | -0.0523 | -0.114
HNRNPR_O43390_292_GFCFLEYEDHK (UniProt O43390) | -0.0538 | -0.0259
HTATSF1_O43719_295_NMFHPMDFEDDPLVLNEIREDLRVECSK (UniProt O43719) | -0.277 | -0.132
HNRNPH2_P55795_22_GLPWSCSADEVMR (UniProt P55795) | 0.194 | -0.0503
HSPA2_P54652_191_KGCAGGEK (UniProt P54652) | -0.0518 | -0.0114
HNRNPU_Q00839_497_DCEVVMMIGLPGAGK (UniProt Q00839) | -0.0635 | -0.00894
HPS5_Q9UPZ3_37_CTSIAVSR (UniProt Q9UPZ3) | 0.138 | 0.265
HNRNPU_Q00839_607_AVVVCPKDEDYK (UniProt Q00839) | -0.268 | -0.176
HNRNPUL1_Q9BUJ2_377_NCAVEFNFGQR (UniProt Q9BUJ2) | 0.0728 | -0.00236
HNRNPA3_P51991_196_YHTINGHNCEVK (UniProt P51991) | -0.00565 | -0.0527
HPS1_Q92902_165_EQEQCFAVEALER (UniProt Q92902) | 0.259 | 0.344
HSPB11_Q9Y547_52_HPPENIIDGNPETFWTTTGMFPQEFIICFHK (UniProt Q9Y547) | 0.109 | 0.0788
HNRNPH2_P55795_290_YGDGGSSFQSTTGHCVHMR (UniProt P55795) | 0.0276 | -0.211
